Reference: PubChem BioAssay AID1224828 (NIAID, 2016)
This is one part, drawn at random, of about 17,000 reagents tested. In the full data, 762 (4.5%) were called active. 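Active calls include both raised and lowered p65 entry, mostly lowered; wells with fewer than 50 cells lack a z-score.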 Raw values vary from plate to plate and are shown uncorrected. A number with no mark means an inactive call.

- Aim: 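Knock-downs that increase or decrease LPS-induced p65 nuclear translocation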 (primary screen)
- Cells: mouse RAW264.7 G9 macrophage reporter cells (GFP-p65, Tnf promoter-mCherry)
- Reagents: siRNA pool against mouse genes, 100 nM
- Timing: 2 days siRNA transfection, then 40 min LPS before fixation
- Treatment: LPS (Salmonella minnesota R595) at 10 ng/ml
- Measured: 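Imaged p65 nuclear translocation ratio, normalised to the plate median, converted to robust z-scores and averaged across two replicates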
- Reading the numbers: p65 translocation robust z-score: higher = more nuclear NF-kappaB p65 after LPS than the plate median; nuclear/cytoplasmic p65 ratio: higher = more nuclear NF-kappaB p65
- Call rule: 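Active if robust z is above 3.3 (negative regulators) or below -1.56, the Tlr4 control median (positive regulators); activity score 50 or more; control wells not called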
- Calls: active = hit (p65 shift raised or lowered); inactive = no clear change

gene knocked down	p65 translocation robust z-score	nuclear/cytoplasmic p65 ratio, rep 1	nuclear/cytoplasmic p65 ratio, rep 2	low cell count flag
Aloxe3 (arachidonate lipoxygenase 3)	1.11	1.8	1.77	enough cells to score
Eaf1 (ELL associated factor 1)		1.26	1.22	fewer than 50 cells per well; well left out of scoring
Mcl1 (myeloid cell leukemia sequence 1)		1.29	1.18	fewer than 50 cells per well; well left out of scoring
Dact1 (dishevelled-binding antagonist of beta-catenin 1)	-0.64	1.39	1.28	enough cells to score
Myo15a (myosin XVA)	-0.72	1.3	1.29	enough cells to score
Or8u3 (olfactory receptor family 8 subfamily U member 3)	-0.29	1.66	1.5	enough cells to score
Sectm1a (secreted and transmembrane 1A)	0.83	1.67	2.02	enough cells to score
Zc3h12d (zinc finger CCCH type containing 12D)	0.47	1.61	1.64	enough cells to score
Mrpl22 (mitochondrial ribosomal protein L22)	0.01	1.84	1.55	enough cells to score
Spice1 (spindle and centriole associated protein 1)	0.91	1.65	1.73	enough cells to score
Polg (polymerase (DNA directed), gamma)	-0.94	1.35	1.3	enough cells to score
Pax4 (paired box 4)	-1.36	1.22	1.27	enough cells to score
Impa2 (inositol monophosphatase 2)	-0.34	1.43	1.33	enough cells to score
Clgn (calmegin)	0.73	1.64	1.41	enough cells to score
Map2k2 (mitogen-activated protein kinase kinase 2)	-0.43	1.79	1.32	enough cells to score
Nsmf	-1.13	1.62	1.4	enough cells to score
Kcnb2	0.62	1.72	1.69	enough cells to score
Mapkbp1 (mitogen-activated protein kinase binding protein 1)	-1.51	1.53	1.28	enough cells to score
Zfp874a (zinc finger protein 874a)		1.26	1.47	fewer than 50 cells per well; well left out of scoring
Galnt2 (polypeptide N-acetylgalactosaminyltransferase 2)	-0.84	1.55	1.27	enough cells to score
Ube3c (ubiquitin protein ligase E3C)	0.51	1.59	1.56	enough cells to score
Or4f4b (olfactory receptor family 4 subfamily F member 4B)	-0.08	1.67	1.35	enough cells to score
Pofut3 (protein O-fucosyltransferase 3)	0.11	1.65	1.44	enough cells to score
Cntn1 (contactin 1)	0.67	1.69	1.34	enough cells to score
Ccdc93 (coiled-coil domain containing 93)		1.55	1.27	fewer than 50 cells per well; well left out of scoring
Tcf12 (transcription factor 12)	0.3	1.5	1.62	enough cells to score
Ifi203 (interferon activated gene 203)	0.27	1.58	1.47	enough cells to score
H2-Ob (histocompatibility 2, O region beta locus)	0.59	1.56	1.41	enough cells to score
4930503E14Rik (RIKEN cDNA 4930503E14 gene)	0.66	1.39	1.38	enough cells to score
Cd9 (CD9 antigen)	0.7	1.53	1.5	enough cells to score
Fcgr4 (Fc receptor, IgG, low affinity IV)	-0.99	1.19	1.23	enough cells to score
Pcdhb22 (protocadherin beta 22)	-1.42	1.24	1.25	enough cells to score
B3gat3 (beta-1,3-glucuronyltransferase 3)	0.01	1.61	1.51	enough cells to score
Hk1 (hexokinase 1)	0.61	1.83	1.43	enough cells to score
Olig1 (oligodendrocyte transcription factor 1)		0.985	1.08	fewer than 50 cells per well; well left out of scoring
Ccdc180 (coiled-coil domain containing 180)	1.66	1.66	1.6	enough cells to score
Sf3a3 (splicing factor 3a, subunit 3)	-0.94	1.41	1.43	enough cells to score
Eif3e (eukaryotic translation initiation factor 3, subunit E)	0.1	1.51	1.35	enough cells to score
Aptx (aprataxin)	0.3	1.77	1.56	enough cells to score
Creb3l3 (cAMP responsive element binding protein 3-like 3)	0.79	1.52	2.1	enough cells to score

4 consecutive reagents already listed:
gene knocked down	p65 translocation robust z-score	nuclear/cytoplasmic p65 ratio, rep 1	nuclear/cytoplasmic p65 ratio, rep 2	low cell count flag
Galnt2 (polypeptide N-acetylgalactosaminyltransferase 2)	-0.84	1.55	1.27	enough cells to score
Ube3c (ubiquitin protein ligase E3C)	0.51	1.59	1.56	enough cells to score
Or4f4b (olfactory receptor family 4 subfamily F member 4B)	-0.08	1.67	1.35	enough cells to score
Pofut3 (protein O-fucosyltransferase 3)	0.11	1.65	1.44	enough cells to score
